The other results are listed elsewhere or left out. Shown are side measurements of this screen, not its main read-out; they come without a call. Most of these compounds were active or inconclusive in the main read-out, so they are no random draw. Potencies come from curve fits of mixed quality, noted in brackets.
Assay: qHTS Assay for Modulators of Lamin A Splicing
Conditions: HeLa LMNA splicing GFP/RFP minigene ratio, 48 h
Method in brief: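 S3 HeLa stable clones carrying a lamin A-EGFP splicing minigene plus DsRed2 were seeded at 600 cells/well in Opti-MEM with 2% FBS, pin-dosed and incubated 48 h at 37°C. Acumen cytometry (488 nm) gave the GFP/RFP total-intensity ratio.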

[1] = measured here: RFP viability control channel
[2] = measured here: GFP splicing reporter channel

Structure (SMILES)	AC50 [1]	AC50 [2]
CCC(C)[C@@H](NC(=O)OC(C)(C)C)c1nnc(S(=O)(=O)Cc2cccc(C)c2)o1 (some centres undefined)	14.1 µM [rising, partial curve]	
Cc1ccc(S(=O)(=O)N2CCC(=O)N(CCOCc3ccc(C(F)(F)F)cc3)CC2)cc1	3.55 µM [rising, full curve]	3.16 µM [rising, single point]
CNc1nc2cc([N+](=O)[O-])c([N+](=O)[O-])cc2nc1NC	2.82 µM [rising, partial curve]	
O=c1[nH]n(-c2ncnc3c2cnn3-c2ccccc2)c(=O)c2ccccc12	5.62 µM [falling, single point]	
CCOc1ccccc1NC(=O)c1cc(S(=O)(=O)NC2CCCC2)ccc1F		5.01 µM [falling, full curve, poor fit]
COc1ccc(-n2nnnc2/C=C\Nc2ccccc2C(=O)c2ccccc2)cc1	6.31 µM [falling, full curve]	6.31 µM [falling, full curve]
Oc1ccccc1N=Nc1nc(-c2ccccc2)c(-c2ccccc2)[nH]1	35.5 µM [falling, single point]	7.94 µM [falling, partial curve]
NC(N)=Nc1nc(C2COc3ccccc3O2)cs1 (centres undefined)	11.2 µM [rising, partial curve]	8.91 µM [rising, partial curve]
COc1ccc(CNc2nc3ccccc3n2CCN2CCOCC2)cc1	12.6 µM [rising, single point]	
COc1ccc(CNc2nc(-c3cccnc3)nc3ccccc23)c(OC)c1	35.5 µM [falling, single point]	
CCCn1c(SCC(=O)c2c(C)[nH]c(C)c2C(=O)OCC)nc2ccccc21	0.316 µM [rising, full curve, poor fit]	
COc1ccccc1C(NC(=O)C1CCCCC1)c1c(O)ccc2ccccc12 (centres undefined)	0.1 µM [rising, partial curve, poor fit]	
CC(/C=C/c1ccccc1F)=N\NC(=O)C(C)C		22.4 µM [falling, single point]
CCNC(=S)Nc1scc(-c2ccccc2)c1C(=O)OCC	0.0891 µM [rising, full curve, poor fit]	
CN1CCN(CCCN2c3ccccc3Sc3ccc(S(=O)(=O)N(C)C)cc32)CC1	0.00447 µM [falling, full curve, poor fit]	0.00501 µM [falling, full curve, poor fit]
COc1ccc(NS(=O)(=O)c2cccc(-c3nnc(-c4ccccc4)o3)c2)cc1	35.5 µM [rising, single point]	35.5 µM [rising, single point]
CC1=C(C(=O)NCc2ccccc2C)C2(CCCCCC2)OC1=O		0.02 µM [falling, partial curve, poor fit]
O=C(NCc1cccnc1)c1cc(Sc2cccc(Cl)c2)nc2ccccc12	22.4 µM [rising, partial curve]	20 µM [rising, single point]

Structure (SMILES)	AC50 [1]	AC50 [2]
COc1ccc(C(=O)NCC(=O)OCc2ccccc2F)cc1	0.02 µM [rising, full curve, poor fit]	
CCCOc1ccc(N2C(=O)CC(SCc3nc4ccccc4[nH]3)C2=O)cc1 (centres undefined)	0.631 µM [falling, full curve, poor fit]	
CN(C)c1ccc2c(c1)OC(N)=C(C#N)C2c1cccc(F)c1 (centres undefined)	2 µM [rising, partial curve]	
Nc1nonc1C(=O)NCCN=Cc1cc(Cc2ccccc2)cc(Br)c1O	35.5 µM [rising, single point]	22.4 µM [rising, single point]
COc1ccc(OC)c(NC(=O)c2cnc(N3CCCCC3)c3ccccc23)c1	3.16 µM [falling, partial curve]	12.6 µM [falling, partial curve]
Nc1nc(Cl)nc2c1ncn2[C@@H]1O[C@H](CO)[C@H](O)[C@H]1O	22.4 µM [falling, partial curve, poor fit]	20 µM [falling, partial curve]
C=CCNC(=S)Nc1c(N)n(C)c(=O)n(C)c1=O		0.0158 µM [rising, full curve, poor fit]
COc1cc(OC)cc(C(=O)Nn2cc(C(=O)Nc3ccc(F)cc3F)c3ccccc3c2=O)c1	14.1 µM [rising, partial curve]	11.2 µM [rising, partial curve, poor fit]
COc1ccccc1NC(=O)c1ccc(-c2nn(C)c(=O)c3ccccc23)cc1		8.91 µM [falling, partial curve, poor fit]
CS(=O)(=O)N(CC(=O)N1CCc2ccccc2C1)Cc1ccc(Cl)cc1	12.6 µM [rising, single point]	
COc1cccc(-n2nnnc2S(C)(=O)=O)c1	12.6 µM [falling, partial curve]	
Cc1noc(/C=C/c2ccco2)c1S(=O)(=O)N1CCC(C(=O)Nc2ccc(Cl)cn2)CC1	2.82 µM [rising, full curve]	0.631 µM [rising, full curve, poor fit]
Cc1nn(C)cc1CNC(=O)C1C2CCC(O2)C1C(=O)O (centres undefined)	35.5 µM [falling, single point]	15.8 µM [falling, single point]
CCNC(=O)NC(=O)C(C)Sc1nc2cc(C(=O)OC)ccc2c(=O)n1-c1ccccc1 (centres undefined)	0.501 µM [falling, partial curve, poor fit]	
O=S(=O)(c1ccc(NC(=S)NCCC(c2ccccc2)c2ccccc2)cc1)N1CCOCC1	14.1 µM [rising, single point]	
Cn1ncc(Cl)c1C(=O)Nc1sc2c(c1C(N)=O)CCC2	35.5 µM [rising, single point]	
CCNC(=S)N1CCN(CCN2C(=O)c3cccc4cccc(c34)C2=O)CC1	0.02 µM [rising, full curve, poor fit]	0.0398 µM [rising, full curve, poor fit]

Two of these compounds, reformatted:
CC1=C(C(=O)NCc2ccccc2C)C2(CCCCCC2)OC1=O
  AC50 [2]: 0.02 µM [falling, partial curve, poor fit]
O=S(=O)(c1ccc(NC(=S)NCCC(c2ccccc2)c2ccccc2)cc1)N1CCOCC1
  AC50 [1]: 14.1 µM [rising, single point]

Reference: PubChem BioAssay AID1487 (National Center for Advancing Translational Sciences (NCATS), 2009)
